Data: the supplement of paper PMC12823440, “Inhibitors supercharge kinase turnover through native proteolytic circuits” (Nature, 2025)
Structures can show the parent of a compound that is named as a salt. This is one part of the list. The calls rarely recur for the same compound in another form.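 Kinases, fused to nanoluciferase, were expressed in K562 cells; luminescence was measured every 4 h from 2 to 18 h as percent of control (DMSO = 100%, positive control = 0%). A time point is decreased if signal falls significantly (2 sigma). Hits were called by the authors by a rule that is not shown; the count of time points alone does not decide it.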

By UniProt entry, the sequences of proteins in these tests, tags left out. Where a name states a change or a piece, a line headed by the entry shows the natural chain unless it says otherwise.
UniProt P29317, whole entry: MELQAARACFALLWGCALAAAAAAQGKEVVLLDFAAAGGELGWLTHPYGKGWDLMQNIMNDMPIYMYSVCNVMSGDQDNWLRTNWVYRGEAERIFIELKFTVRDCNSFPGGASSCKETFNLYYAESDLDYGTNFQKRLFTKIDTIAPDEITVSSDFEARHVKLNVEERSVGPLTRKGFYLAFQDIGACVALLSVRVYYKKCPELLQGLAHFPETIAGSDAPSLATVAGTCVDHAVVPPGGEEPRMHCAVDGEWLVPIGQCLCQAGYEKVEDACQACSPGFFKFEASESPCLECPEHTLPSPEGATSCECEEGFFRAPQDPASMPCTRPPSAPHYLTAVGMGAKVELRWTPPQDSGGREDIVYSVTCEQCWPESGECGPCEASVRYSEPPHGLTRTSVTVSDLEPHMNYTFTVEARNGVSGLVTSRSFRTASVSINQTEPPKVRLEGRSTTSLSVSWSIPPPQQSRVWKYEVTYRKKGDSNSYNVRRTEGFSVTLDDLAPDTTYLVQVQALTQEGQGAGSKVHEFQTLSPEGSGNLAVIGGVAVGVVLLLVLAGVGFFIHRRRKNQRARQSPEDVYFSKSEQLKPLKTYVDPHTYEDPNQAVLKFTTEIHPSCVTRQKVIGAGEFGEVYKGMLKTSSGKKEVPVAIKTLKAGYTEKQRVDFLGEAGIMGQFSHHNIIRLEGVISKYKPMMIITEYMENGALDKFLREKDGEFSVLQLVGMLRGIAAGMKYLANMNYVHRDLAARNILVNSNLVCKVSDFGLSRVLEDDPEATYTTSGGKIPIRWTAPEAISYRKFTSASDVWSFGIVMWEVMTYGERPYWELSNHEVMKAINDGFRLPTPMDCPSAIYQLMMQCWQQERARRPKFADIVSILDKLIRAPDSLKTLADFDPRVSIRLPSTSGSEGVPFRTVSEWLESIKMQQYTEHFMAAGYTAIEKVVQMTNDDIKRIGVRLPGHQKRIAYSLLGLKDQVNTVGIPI
UniProt P21860, whole entry: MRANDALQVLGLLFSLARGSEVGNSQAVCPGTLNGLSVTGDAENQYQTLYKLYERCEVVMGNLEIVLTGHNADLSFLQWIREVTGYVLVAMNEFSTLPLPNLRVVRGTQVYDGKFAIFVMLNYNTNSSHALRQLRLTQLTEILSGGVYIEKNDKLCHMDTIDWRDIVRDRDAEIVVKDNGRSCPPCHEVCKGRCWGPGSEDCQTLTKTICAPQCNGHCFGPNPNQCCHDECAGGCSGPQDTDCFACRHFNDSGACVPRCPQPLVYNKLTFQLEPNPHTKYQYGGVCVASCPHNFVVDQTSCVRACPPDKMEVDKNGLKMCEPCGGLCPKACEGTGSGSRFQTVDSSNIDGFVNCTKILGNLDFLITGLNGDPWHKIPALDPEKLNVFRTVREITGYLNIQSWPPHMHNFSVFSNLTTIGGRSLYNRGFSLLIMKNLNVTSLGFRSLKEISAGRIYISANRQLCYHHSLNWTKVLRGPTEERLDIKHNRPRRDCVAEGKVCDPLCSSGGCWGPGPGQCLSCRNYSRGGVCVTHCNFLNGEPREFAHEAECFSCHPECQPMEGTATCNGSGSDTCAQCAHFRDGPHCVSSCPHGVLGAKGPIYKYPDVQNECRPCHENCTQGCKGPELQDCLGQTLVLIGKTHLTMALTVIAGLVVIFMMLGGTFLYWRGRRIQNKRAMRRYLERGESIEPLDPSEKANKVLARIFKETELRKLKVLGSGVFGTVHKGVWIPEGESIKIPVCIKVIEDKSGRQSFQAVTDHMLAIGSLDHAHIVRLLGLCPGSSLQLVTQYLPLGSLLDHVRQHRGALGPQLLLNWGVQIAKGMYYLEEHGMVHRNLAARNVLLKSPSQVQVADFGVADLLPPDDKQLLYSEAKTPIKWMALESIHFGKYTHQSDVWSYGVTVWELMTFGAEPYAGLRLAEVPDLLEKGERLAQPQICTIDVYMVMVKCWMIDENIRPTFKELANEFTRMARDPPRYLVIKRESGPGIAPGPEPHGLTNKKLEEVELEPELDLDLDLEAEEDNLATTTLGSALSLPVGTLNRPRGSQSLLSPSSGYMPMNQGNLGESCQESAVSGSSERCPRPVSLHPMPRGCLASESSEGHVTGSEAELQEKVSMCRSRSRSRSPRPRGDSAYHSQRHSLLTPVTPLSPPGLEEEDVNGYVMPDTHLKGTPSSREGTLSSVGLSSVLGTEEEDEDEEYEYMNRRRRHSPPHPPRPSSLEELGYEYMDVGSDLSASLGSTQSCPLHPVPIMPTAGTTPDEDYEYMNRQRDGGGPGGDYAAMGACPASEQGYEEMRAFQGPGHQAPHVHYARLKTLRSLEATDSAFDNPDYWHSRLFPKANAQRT
UniProt O75460: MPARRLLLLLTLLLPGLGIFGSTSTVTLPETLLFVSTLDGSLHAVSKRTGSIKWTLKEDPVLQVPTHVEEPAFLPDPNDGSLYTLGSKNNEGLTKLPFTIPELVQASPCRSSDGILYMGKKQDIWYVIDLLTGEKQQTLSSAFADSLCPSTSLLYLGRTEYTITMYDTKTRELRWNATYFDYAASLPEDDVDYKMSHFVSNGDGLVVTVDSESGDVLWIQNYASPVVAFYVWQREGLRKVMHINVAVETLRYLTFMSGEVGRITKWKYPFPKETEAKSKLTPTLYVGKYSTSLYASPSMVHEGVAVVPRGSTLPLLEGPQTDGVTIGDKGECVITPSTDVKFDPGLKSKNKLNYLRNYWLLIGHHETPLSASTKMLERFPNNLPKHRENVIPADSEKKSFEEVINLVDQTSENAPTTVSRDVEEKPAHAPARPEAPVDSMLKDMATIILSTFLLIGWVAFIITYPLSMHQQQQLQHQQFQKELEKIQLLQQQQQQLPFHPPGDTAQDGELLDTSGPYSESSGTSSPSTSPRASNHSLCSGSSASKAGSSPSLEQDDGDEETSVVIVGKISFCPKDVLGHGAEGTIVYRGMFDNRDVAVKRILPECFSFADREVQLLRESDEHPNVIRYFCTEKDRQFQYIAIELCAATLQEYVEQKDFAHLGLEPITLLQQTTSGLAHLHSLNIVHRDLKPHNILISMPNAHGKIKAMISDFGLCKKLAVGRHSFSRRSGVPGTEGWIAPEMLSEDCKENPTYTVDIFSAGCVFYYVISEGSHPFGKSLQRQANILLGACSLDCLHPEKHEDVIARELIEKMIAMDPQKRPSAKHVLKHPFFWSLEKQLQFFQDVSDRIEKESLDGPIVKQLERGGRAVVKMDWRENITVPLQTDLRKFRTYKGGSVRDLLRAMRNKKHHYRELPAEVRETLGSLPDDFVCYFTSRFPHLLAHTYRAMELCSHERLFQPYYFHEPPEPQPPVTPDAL
UniProt P11362, whole entry, looked up: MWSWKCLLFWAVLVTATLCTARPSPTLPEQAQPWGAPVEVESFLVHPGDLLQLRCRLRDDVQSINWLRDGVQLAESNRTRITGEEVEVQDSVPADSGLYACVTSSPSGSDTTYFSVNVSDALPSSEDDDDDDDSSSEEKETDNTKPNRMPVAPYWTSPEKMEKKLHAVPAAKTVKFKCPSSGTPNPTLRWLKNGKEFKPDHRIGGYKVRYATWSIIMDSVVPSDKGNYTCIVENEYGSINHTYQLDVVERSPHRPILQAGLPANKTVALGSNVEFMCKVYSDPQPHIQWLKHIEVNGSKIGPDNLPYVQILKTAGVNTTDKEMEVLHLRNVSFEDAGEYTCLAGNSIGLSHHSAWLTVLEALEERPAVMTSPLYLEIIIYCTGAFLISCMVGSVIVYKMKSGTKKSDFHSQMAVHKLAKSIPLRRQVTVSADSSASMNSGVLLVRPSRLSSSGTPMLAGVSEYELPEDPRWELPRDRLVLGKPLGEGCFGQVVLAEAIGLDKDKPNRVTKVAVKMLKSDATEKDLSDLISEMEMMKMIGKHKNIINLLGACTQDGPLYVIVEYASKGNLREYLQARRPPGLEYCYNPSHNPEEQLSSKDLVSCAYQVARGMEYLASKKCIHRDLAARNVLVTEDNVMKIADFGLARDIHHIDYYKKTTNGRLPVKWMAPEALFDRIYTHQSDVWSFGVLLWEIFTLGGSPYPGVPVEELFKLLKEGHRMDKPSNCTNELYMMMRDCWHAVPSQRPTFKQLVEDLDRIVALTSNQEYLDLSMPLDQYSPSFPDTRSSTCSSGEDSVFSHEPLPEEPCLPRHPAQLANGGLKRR
UniProt P21802, whole entry, looked up: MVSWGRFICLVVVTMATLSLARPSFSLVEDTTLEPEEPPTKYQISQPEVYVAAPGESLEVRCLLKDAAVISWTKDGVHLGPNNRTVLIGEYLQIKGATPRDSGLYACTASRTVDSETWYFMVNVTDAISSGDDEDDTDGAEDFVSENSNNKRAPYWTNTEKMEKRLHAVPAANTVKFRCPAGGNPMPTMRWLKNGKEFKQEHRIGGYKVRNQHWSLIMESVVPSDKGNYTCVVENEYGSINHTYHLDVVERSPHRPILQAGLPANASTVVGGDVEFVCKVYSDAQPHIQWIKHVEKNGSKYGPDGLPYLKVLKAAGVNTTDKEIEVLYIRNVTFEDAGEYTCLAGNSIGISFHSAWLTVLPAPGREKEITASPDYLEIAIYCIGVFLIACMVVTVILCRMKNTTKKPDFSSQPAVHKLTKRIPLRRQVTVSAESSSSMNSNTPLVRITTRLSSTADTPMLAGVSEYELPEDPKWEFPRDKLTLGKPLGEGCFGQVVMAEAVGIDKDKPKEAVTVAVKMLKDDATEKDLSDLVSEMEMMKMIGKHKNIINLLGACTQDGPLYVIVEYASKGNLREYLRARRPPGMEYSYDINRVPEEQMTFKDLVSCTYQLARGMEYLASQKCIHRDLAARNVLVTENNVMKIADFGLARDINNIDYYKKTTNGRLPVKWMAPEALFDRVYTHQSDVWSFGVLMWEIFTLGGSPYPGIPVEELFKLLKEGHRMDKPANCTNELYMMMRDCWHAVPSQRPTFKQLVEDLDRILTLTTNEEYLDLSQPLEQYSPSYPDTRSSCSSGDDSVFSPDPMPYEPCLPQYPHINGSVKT
UniProt P22607, whole entry, looked up: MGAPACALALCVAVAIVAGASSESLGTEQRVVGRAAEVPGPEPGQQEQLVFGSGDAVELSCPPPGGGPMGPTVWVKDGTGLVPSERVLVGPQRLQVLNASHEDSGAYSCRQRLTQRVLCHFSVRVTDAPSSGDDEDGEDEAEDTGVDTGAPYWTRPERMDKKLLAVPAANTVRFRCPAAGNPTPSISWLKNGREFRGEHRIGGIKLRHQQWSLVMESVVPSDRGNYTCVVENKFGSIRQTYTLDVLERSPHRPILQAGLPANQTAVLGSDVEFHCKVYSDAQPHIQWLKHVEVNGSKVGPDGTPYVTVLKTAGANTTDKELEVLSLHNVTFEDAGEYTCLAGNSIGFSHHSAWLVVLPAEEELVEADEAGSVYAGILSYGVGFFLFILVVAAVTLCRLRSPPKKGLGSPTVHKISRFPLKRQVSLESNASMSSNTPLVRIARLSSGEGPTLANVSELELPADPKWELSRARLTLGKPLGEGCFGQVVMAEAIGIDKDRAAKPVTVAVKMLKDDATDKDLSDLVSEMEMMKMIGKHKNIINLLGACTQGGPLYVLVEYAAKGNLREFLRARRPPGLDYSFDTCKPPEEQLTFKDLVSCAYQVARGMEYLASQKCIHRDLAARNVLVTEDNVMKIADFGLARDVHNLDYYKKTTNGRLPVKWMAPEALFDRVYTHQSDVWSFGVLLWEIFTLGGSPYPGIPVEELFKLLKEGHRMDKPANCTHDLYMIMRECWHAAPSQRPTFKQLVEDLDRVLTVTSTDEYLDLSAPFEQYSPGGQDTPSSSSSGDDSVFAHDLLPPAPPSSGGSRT

Legend:
Assay in all cases: number of time points (of 5) at which kinase-Nluc abundance scored as decreased, DMSO-normalised (count); higher = more persistent destabilization
Details in all cases: K562; 2-18 h
EGFR_L861Q = EGFR_L861Q (UniProt P00533)
EGFR_T790M = EGFR_T790M (UniProt P00533)
EPHA2 = EPHA2 (UniProt P29317)
ERBB3 = ERBB3 (UniProt P21860)
[1] = biological target: ERBB4_R711C (clone: ERBB4_mut) (UniProt Q15303)
ERN1 = ERN1 (UniProt O75460)
FGFR1 = FGFR1 (UniProt P11362)
FGFR2 = FGFR2 (UniProt P21802)
FGFR3 = FGFR3 (UniProt P22607)
FGR = FGR (UniProt P09769)

| Compound | number of time points (EGFR_L861Q) | number of time points (EGFR_T790M) | number of time points (EPHA2) | number of time points (ERBB3) | number of time points [1] | number of time points (ERN1) | number of time points (FGFR1) | number of time points (FGFR2) | number of time points (FGFR3) | number of time points (FGR) |
| --- | --- | --- | --- | --- | --- | --- | --- | --- | --- | --- |
| CC1=C2C(=O)O[C@@H](c3ccoc3)[C@]2(C)CCC1 [Fraxinellone] (10 µM) | 0 | 0 | 0 | 0 | 0 | 0 | 0 | 0 | 0 | 0 |
| O=c1cc(O)cc(/C=C/c2ccc(O)c(O)c2)o1 [Hispidin] (10 µM) | 0 | 0 | 0 | 0 | 0 | 0 | 0 | 0 | 0 | 0 |
| Cn1cc(Nc2nccc(N3C[C@H]4CC[C@@H](C3)N4C(=O)[C@@H]3CC3(F)F)n2)cn1 (10 µM) | 0 | 0 | 0 | 0 | 0 | 0 | 0 | 0 | 0 | 0 |
| OC[C@H]1O[C@@H](Oc2cc3c(O)cc(O)cc3[o+]c2-c2cc(O)c(O)c(O)c2)[C@H](O)[C@@H](O)[C@@H]1O [Delphinidin 3-glucoside (chloride)] (10 µM) | 0 | 0 | 0 | 0 | 0 | 0 | 0 | 0 | 0 | 0 |
| Cc1ccc(S(=O)(=O)Nc2ccccc2C=Nc2ccccc2NS(=O)(=O)c2ccc(C)cc2)cc1 (10 µM) | 0 | 0 | 0 | 0 | 0 | 0 | 0 | 0 | 0 | 0 |
| CN1CCN(c2ccc(Nc3ncc4nc(Nc5ccccc5)n([C@@H]5CCN(S(=O)(=O)C6CC6)C5)c4n3)cc2)CC1 (2.5 µM) | 0 | 0 | 0 | 0 | 0 | 0 | 0 | 2 | 0 | 0 |
| C#CCN(C)C(=O)CCNc1nc(N2CCN(C(=O)C=C)CC2)c2cc(Cl)c(-c3c(O)cccc3F)c(F)c2n1 [ARS-1323-alkyne] (2.5 µM) | 0 | 0 | 0 | 0 | 0 | 0 | 0 | 0 | 0 | 0 |
| N#Cc1c(-c2ccccc2)cc(-c2cc(Br)ccc2O)[nH]c1=O (10 µM) | 0 | 0 | 0 | 0 | 0 | 0 | 1 | 0 | 0 | 0 |
| Cc1ccc(NC(=S)NNc2c([N+](=O)[O-])cc(C(F)(F)F)cc2[N+](=O)[O-])cc1Cl (10 µM) | 0 | 0 | 0 | 0 | 0 | 0 | 0 | 0 | 0 | 0 |
| COc1cc([N+](=O)[O-])ccc1S(=O)(=O)N1C[C@@H](CN2CCN(c3ccccn3)CC2)[C@H](c2cccc(F)c2)C1 (relative stereo) (10 µM) | 0 | 0 | 0 | 0 | 0 | 0 | 0 | 0 | 0 | 0 |
| COC1(c2sc3c(N4CCOCC4)nc(-c4cnc(N)nc4)nc3c2C)COC1 (2.5 µM) | 0 | 0 | 0 | 0 | 0 | 0 | 0 | 0 | 0 | 0 |
| CN1C(=O)C(Cc2c[nH]c3ccccc23)NC1=S (stereo not given) [Necrostatin-1] (10 µM) | 0 | 0 | 0 | 0 | 0 | 0 | 0 | 0 | 0 | 0 |
| O=C(Nc1nc2ccccc2[nH]1)c1cccc(-n2cccc2)c1 (10 µM) | 0 | 0 | 0 | 0 | 0 | 0 | 0 | 0 | 0 | 0 |
| COc1cc(S(C)(=O)=O)ccc1Nc1nc2ccc(-c3ccc(NC(=O)[C@H](C)c4ccc(F)cc4)cc3)cn2n1 [Empesertib] (10 µM) | 0 | 0 | 0 | 0 | 0 | 0 | 0 | 0 | 0 | 0 |
| CNc1nc(Nc2cnn(C3CCN(C4COC4)CC3F)c2Cl)ncc1C(F)(F)F (stereo not given) (10 µM) | 0 | 0 | 0 | 0 | 0 | 0 | 0 | 0 | 0 | 0 |
| N#CC(c1ccnc(NCCc2cccnc2)n1)c1nc2ccccc2s1 (stereo not given) (10 µM) | 0 | 0 | 0 | 0 | 0 | 0 | 0 | 0 | 0 | 0 |
| Cc1cc(O)c(C(C)C)cc1N=O [Poloxime] (10 µM) | 0 | 0 | 0 | 0 | 0 | 0 | 0 | 0 | 0 | 0 |
| O=C(O)CCc1ccc(O)c(O)c1 [Dihydrocaffeic acid] (10 µM) | 0 | 0 | 0 | 0 | 0 | 0 | 0 | 0 | 0 | 0 |
| O=C1c2ccc(Nc3ccc(F)cc3F)cc2CCc2ccc(OC[C@H](O)CO)cc21 [Skepinone-L] (2.5 µM) | 0 | 0 | 0 | 0 | 0 | 0 | 0 | 0 | 0 | 0 |

| Compound | number of time points (EGFR_L861Q) | number of time points (EGFR_T790M) | number of time points (EPHA2) | number of time points (ERBB3) | number of time points [1] | number of time points (ERN1) | number of time points (FGFR1) | number of time points (FGFR2) | number of time points (FGFR3) | number of time points (FGR) |
| --- | --- | --- | --- | --- | --- | --- | --- | --- | --- | --- |
| CC(C)=CC[C@H](O)C1=CC(=O)c2c(O)ccc(O)c2C1=O [(-)-Alkannin] (2.5 µM) | 0 | 0 | 0 | 0 | 0 | 0 | 0 | 0 | 0 | 0 |
| OCCNC1CCCc2c1[nH]c1ccc(-c3ccccc3)cc21 (stereo not given) (2.5 µM) | 2 | 0 | 0 | 0 | 0 | 0 | 0 | 1 | 0 | 1 |
| COCCOc1cnc(Sc2cc(C)c(-c3csc(NC(=O)c4ccncc4)n3)c(C)c2)cn1 [T-1101 (tosylate)] (2.5 µM) | 0 | 0 | 0 | 0 | 0 | 0 | 0 | 0 | 0 | 0 |
| CC(C)CC1(O)CCN(C(=O)c2ccc(NS(=O)(=O)c3cccc4nccnc34)cc2)CC1 (10 µM) | 0 | 0 | 0 | 0 | 0 | 0 | 0 | 0 | 0 | 0 |
| CC(C)CN[C@H]1CS(=O)(=O)C[C@@H]1S(=O)(=O)c1ccc(Cl)cc1 (10 µM) | 0 | 0 | 0 | 0 | 0 | 0 | 1 | 0 | 0 | 0 |
| CC/C=C\C/C=C\C/C=C\CCCCCCCC(=O)O [α-Linolenic acid] (10 µM) | 0 | 0 | 0 | 0 | 0 | 0 | 0 | 0 | 0 | 0 |
| NCc1ccc(Nc2ncc(F)c(Nc3ccccc3)n2)cc1 (10 µM) | 0 | 0 | 0 | 0 | 0 | 0 | 0 | 0 | 0 | 0 |
| C=C1C(=O)O[C@@H]2C[C@@]3(C)CCC[C@H](C)C3=C[C@H]12 [Alantolactone] (10 µM) | 0 | 0 | 0 | 0 | 0 | 0 | 0 | 0 | 0 | 0 |
| O=[N+]([O-])c1cc(C(F)(F)F)cc([N+](=O)[O-])c1NNC(=S)Nc1ccc(F)cc1 (10 µM) | 0 | 0 | 0 | 0 | 0 | 0 | 0 | 0 | 0 | 0 |
| Cc1ccc(S(=O)(=O)/C=C/C#N)cc1 (10 µM) | 0 | 0 | 0 | 0 | 0 | 0 | 0 | 0 | 0 | 0 |
| Cn1cc(-c2ccc(CNc3cc(-c4cnc5cc(OCCCN6CCCC6)ccn45)ncn3)cc2)cn1 (10 µM) | 0 | 0 | 0 | 0 | 0 | 0 | 0 | 0 | 0 | 0 |
| COc1ccc(C(=O)Nc2sc3c(c2C(N)=O)CCCC3)cc1OC (10 µM) | 0 | 0 | 0 | 0 | 0 | 0 | 0 | 0 | 0 | 0 |
| NC1(Cc2ccc(Cl)cc2)CCN(c2ncnc3[nH]ccc23)CC1 (10 µM) | 0 | 0 | 0 | 0 | 0 | 0 | 0 | 0 | 0 | 0 |
| CC1CN(C(=O)Nc2ccc(Cl)c(Cl)c2)C(=Nc2ccc(F)cc2)S1 (stereo not given) (10 µM) | 0 | 0 | 0 | 0 | 0 | 0 | 0 | 0 | 0 | 0 |
| Cc1noc(C)c1-c1ccc(-c2cc(C(N)=O)c(NC(N)=O)s2)c(O[C@H]2CCNC2)c1 (10 µM) | 0 | 0 | 0 | 0 | 0 | 0 | 0 | 0 | 0 | 0 |
| COc1ccc([C@@H]2CC(=O)c3c(O)cc(O)cc3O2)cc1O [Hesperetin] (10 µM) | 0 | 0 | 0 | 0 | 0 | 0 | 0 | 0 | 0 | 0 |
| CCc1cc(O)c(F)cc1-c1ccc2c(-c3nc4c([nH]3)CN(C3CCN(C)CC3)CC4)n[nH]c2c1 [JAK-IN-5 (hydrochloride)] (2 µM) | 2 | 0 | 0 | 3 | 3 | 0 | 2 | 3 | 0 | 0 |
| C[C@@]1(O)CCC[C@H]1n1c(=O)c(C(F)F)cc2cnc(NC3CCN(S(C)(=O)=O)CC3)nc21 (2.5 µM) | 0 | 0 | 0 | 3 | 3 | 0 | 0 | 2 | 0 | 0 |

6 entries from above in another layout:
Compound	number of time points (EGFR_L861Q)	number of time points (EGFR_T790M)	number of time points (EPHA2)	number of time points (ERBB3)	number of time points [1]	number of time points (ERN1)	number of time points (FGFR1)	number of time points (FGFR2)	number of time points (FGFR3)	number of time points (FGR)
Cn1cc(-c2ccc(CNc3cc(-c4cnc5cc(OCCCN6CCCC6)ccn45)ncn3)cc2)cn1 (10 µM)	0	0	0	0	0	0	0	0	0	0
COc1ccc(C(=O)Nc2sc3c(c2C(N)=O)CCCC3)cc1OC (10 µM)	0	0	0	0	0	0	0	0	0	0
NC1(Cc2ccc(Cl)cc2)CCN(c2ncnc3[nH]ccc23)CC1 (10 µM)	0	0	0	0	0	0	0	0	0	0
CC1CN(C(=O)Nc2ccc(Cl)c(Cl)c2)C(=Nc2ccc(F)cc2)S1 (stereo not given) (10 µM)	0	0	0	0	0	0	0	0	0	0
Cc1noc(C)c1-c1ccc(-c2cc(C(N)=O)c(NC(N)=O)s2)c(O[C@H]2CCNC2)c1 (10 µM)	0	0	0	0	0	0	0	0	0	0
COc1ccc([C@@H]2CC(=O)c3c(O)cc(O)cc3O2)cc1O [Hesperetin] (10 µM)	0	0	0	0	0	0	0	0	0	0
